Experimental data taken from PubChem BioAssay (NCATS).
Values joined by “and” are separate entries in the source; they are usually repeats but may differ in a detail not shown here. Equal entries are not always repeated. The inconclusive results got no clear call from the source; some entries with a clear call stand among them for comparison. Potencies beside an inconclusive call are fits to weak or partial responses and may not hold up. Where a structure was tested more than once in an assay, its records may differ in their call. Active and inactive are the calls of the source. Unless noted, calls come from the whole dose curve; as a rule, active = well fitted curve in the direction sought with a large enough effect; inconclusive = small, poorly fitted or top-dose-only effect, or another doubt; inactive = no such curve, though single readings can be large; an effect the other way counts as inactive or inconclusive.

What was measured:
[1] = Quantitative High-Throughput drug screen in 47 multiple myeloma cell lines against the NCATS MIPE library collection: UTMC2_PLB cell viability assay (AID 1919868); details: CellTiter-Glo ATP luminescence, 48 h; viability (% of DMSO control): at 45.8 µM (top of the series); note: nearly all actives have a fitted effect of over 55% in size
Method in brief: (§1)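 Viability after 48 h drug exposure was measured as ATP-dependent luminescence. Cells, 500 per well, sat at 37 °C under 5% CO2; DMSO wells set 100%, media-only wells 0%.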

[2] = Quantitative High-Throughput drug screen in 47 multiple myeloma cell lines against the NCATS MIPE library collection: PCM6_Riken cell viability assay (AID 1919870); details: CellTiter-Glo ATP, 48 h; viability (% of control): at 45.8 µM (top of the series); note: nearly all actives have a fitted effect of over 30% in size
Method in brief: as §1

[3] = Quantitative High-Throughput drug screen in 47 multiple myeloma cell lines against the NCATS MIPE library collection: RPMI8226_ATCC cell viability assay (AID 1919871); note: nearly all actives have a fitted effect of over 30% in size
Method in brief: as §1

[4] = Quantitative High-Throughput drug screen in 47 multiple myeloma cell lines against the NCATS MIPE library collection: KMS11_JCRBsus cell viability assay (AID 1919873); note: nearly all actives have a fitted effect of over 50% in size
Method in brief: as §1

[5] = Quantitative High-Throughput drug screen in 47 multiple myeloma cell lines against the NCATS MIPE library collection: KMS28BM_JCRB cell viability assay (AID 1919874); note: nearly all actives have a fitted effect of over 35% in size
Method in brief: as §1

[6] = qHTS for identification of novel therapeutic agents for treatment of microphthalmiaassociated transcription factor (MiT) renal cell carcinoma (RCC) (AID 1963991; calls by dose curve); details: TFE3-RCC UOK109 viability, CellTiter-Glo, 48 h; active = Z-AUC below -0.8 in all three lines
Method in brief: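 Three TFE3-fusion RCC cell lines (UOK109, UOK124, UOK145), 500 cells/well, were exposed to the 1912-compound MIPE 4.0 library for 48 hours at 37 C. Viability was read by CellTiter-Glo luminescence, normalised to DMSO (100%) and empty wells (0%), with 11-concentration curve fits.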

[7] = test system: CRL-7250; experiment: Cytotoxic Profiling of Annotated Libraries Using Quantitative High-Throughput Screening (AID 1296008); details: Five cell lines viability, CellTiter-Glo ATP luminescence, 48-72 h; max response: hits give low values; note: nearly all actives have a fitted effect of over 60% in size; for max response: % is set by controls: 0 for no effect and ±100 for the full control effect
Method in brief: (§2)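 Cells exposed to compounds for 48 or 72 hr at 37 degrees Celsius. Viability read as ATP-coupled luminescence with CellTiter-Glo after 10 min at room temperature.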

[8] = Quantitative High-Throughput drug screen in 47 multiple myeloma cell lines against the NCATS MIPE library collection: OPM2_DSMZ cell viability assay (AID 1919872); note: nearly all actives have a fitted effect of over 30% in size
Method in brief: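 Primary qHTS used for cherry-picking: cells at 500/well, library compounds for 48 h (37C, 5% CO2), luminescent ATP assay.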

[9] = test system: KB-3-1; experiment: Cytotoxic Profiling of Annotated Libraries Using Quantitative High-Throughput Screening (AID 1296008); details: Five cell lines viability, CellTiter-Glo ATP luminescence, 48-72 h; max response: hits give low values; note: nearly all actives have a fitted effect of over 60% in size; for max response: % is set by controls: 0 for no effect and ±100 for the full control effect
Method in brief: as §2

[10] = test system: NIH3T3; experiment: as above; details: Five cell lines viability, CellTiter-Glo ATP luminescence, 48-72 h; max response: hits give low values
Method in brief: as §2

[11] = Quantitative High-Throughput drug screen in 47 multiple myeloma cell lines against the NCATS MIPE library collection: PE2_PLB cell viability assay (AID 1919869); note: nearly all actives have a fitted effect of over 35% in size
Method in brief: as §1

[12] = test system: HaCat; experiment: Cytotoxic Profiling of Annotated Libraries Using Quantitative High-Throughput Screening (AID 1296008); details: Five cell lines viability, CellTiter-Glo ATP luminescence, 48-72 h; max response: hits give low values; note: nearly all actives have a fitted effect of over 60% in size; for max response: % is set by controls: 0 for no effect and ±100 for the full control effect
Method in brief: as §2

[13] = test system: MCC-13; experiment: qHTS assay to identify novel small-molecules to repurpose for Merkel cell carcinoma treatment (AID 1296009); details: MCC and control cell lines, CellTiter-Glo viability, 72 h; series mostly up to 46 µM; note: nearly all actives have a fitted effect of over 60% in size
Method in brief: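 Cells were incubated with compound for 72 hr at 37 degree celsius before CellTiter-Glo addition. Luminescence was normalized with no-cell wells as full cytotoxicity and DMSO as baseline.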
Potency is the fitted concentration of half-maximal effect.

CCOC(CN1C(=O)[C@](CC(=O)Nc2ccc(C)cc2)(NC(=O)Nc2ccc(C)cc2)c2ccccc21)OCC
inconclusive: Potency [1] 37.2 µM [cytotoxic, single point] | Potency [2] 37.2 µM [cytotoxic, single point] | Potency [3] 37.2 µM [cytotoxic, single point] | Potency [5] 33.2 µM [cytotoxic, single point] | Potency [6] 37.2 µM [falling, single point]
inactive: max response [7] 2.73%
active: Potency [4] 26.4 µM

CNC1CCC(N(Cc2cccc(-c3ccncc3)c2)C(=O)c2sc3c(F)ccc(F)c3c2Cl)CC1 (stereo unspecified)
inconclusive: Potency [8] 33.2 µM [cytotoxic, single point] | Potency [6] 13.2 µM [falling, partial curve] | Potency [7] 29.6 µM [inhibitor, single point] and 29.1 µM [inhibitor, single point] | Potency [9] 37.2 µM [inhibitor, single point] and 16.4 µM [inhibitor, single point] | Potency [10] 33.2 µM [inhibitor, single point] and 20.6 µM [inhibitor, single point]
active: Potency [1] 20.9 µM | Potency [2] 14.8 µM | Potency [4] 9.35 µM | Potency [5] 26.4 µM

CS(=O)(=O)N1CCN(Cc2cc3nc(-c4cccc5[nH]ncc45)nc(N4CCOCC4)c3s2)CC1
inconclusive: Potency [9] 1.05 µM [inhibitor, full curve] and 2.31 µM [inhibitor, full curve]
active: Potency [7] 1.05 µM and 1.64 µM

O=C(NOCC(O)CO)c1cc(Br)c(F)c(F)c1Nc1ccc(I)cc1F (stereo unspecified)
inconclusive: Potency [1] 0.0042 µM [cytotoxic, full curve, poor fit] | Potency [11] 18.7 µM [cytotoxic, partial curve] | Potency [2] 5.26 µM [cytotoxic, partial curve, poor fit] | Potency [4] 8.33 µM [cytotoxic, full curve, poor fit] | Potency [5] 8.33 µM [cytotoxic, single point] | Potency [6] 0.0662 µM [falling, full curve] | Potency [7] 16.6 µM [inhibitor, partial curve, poor fit] | Potency [12] 0.372 µM [inhibitor, full curve] | Potency [10] 26.4 µM [inhibitor, partial curve, poor fit] | Potency [13] 4.18 µM [inhibitor, partial curve]
inactive: Potency [3] | Potency [8]

CC1(C)CCC(C)(C)c2cc(NC(=O)c3ccc(C(=O)O)cc3)ccc21
inactive: Potency [8] | Potency [5]
inconclusive: Potency [1] 18.7 µM [cytotoxic, partial curve, poor fit] | Potency [2] 8.33 µM [cytotoxic, full curve, poor fit] | Potency [3] 10.5 µM [cytotoxic, partial curve] | Potency [6] 13.2 µM | Potency [7] 9.35 µM [inhibitor, partial curve, poor fit]

CCOC(=O)C1=C(O)C(=O)N(Cc2ccccc2)C1
inactive: Potency [2] | max response [7] 2.77%
inconclusive: Potency [1] 1.48 µM [cytotoxic, full curve, poor fit]

COc1ccc(-c2c(-c3ccc(O)cc3O)n[nH]c2C)cc1
inconclusive: Potency [1] 0.241 µM [cytotoxic, full curve, poor fit] | Potency [11] 30.3 µM [cytotoxic, partial curve] | Potency [5] 67.9 µM [cytotoxic, single point]
inactive: Potency [8] | max response [9] -14.6%
active: Potency [7] 30.3 µM

NC(=O)c1nnn(Cc2cc(Cl)c(C(=O)c3ccc(Cl)cc3)c(Cl)c2)c1N
inconclusive: Potency [1] 16.6 µM [cytotoxic, partial curve, poor fit] | Potency [2] 23.5 µM [cytotoxic, partial curve] | Potency [8] 29.6 µM [cytotoxic, single point] | Potency [5] 14.8 µM [cytotoxic, partial curve] | Potency [6] 23.5 µM [falling, partial curve, poor fit] | Potency [7] 33.2 µM [inhibitor, single point] | Potency [10] 37.2 µM [inhibitor, single point]

CC[C@@H]1C=C(C)C[C@H](C)C[C@H](OC)[C@H]2O[C@@](O)(C(=O)C(=O)N3CCCC[C@@H]3C(=O)O[C@H](C(C)=C[C@@H]3CC[C@H](Cl)[C@H](OC)C3)[C@H](C)[C@@H](O)CC1=O)[C@H](C)C[C@H]2OC
inconclusive: Potency [1] 18.7 µM [cytotoxic, partial curve, poor fit] | Potency [2] 23.5 µM [cytotoxic, partial curve, poor fit] | Potency [4] 20.9 µM [cytotoxic, partial curve] | Potency [5] 23.5 µM [cytotoxic, partial curve] | Potency [6] 18.7 µM [falling, partial curve] | Potency [7] 37.2 µM [inhibitor, single point] | Potency [12] 33.2 µM [inhibitor, single point]

Cc1cc(-c2ccc(CC(=O)Nc3ccc(-c4cccnc4)cc3)cc2)ccn1
active: Potency [3] 5.9 µM | Potency [4] 20.9 µM
inconclusive: Potency [1] 37.2 µM [cytotoxic, partial curve, poor fit] | Potency [11] 18.7 µM [cytotoxic, partial curve] | Potency [5] 23.5 µM [cytotoxic, partial curve, poor fit] | Potency [6] 2.35 µM [falling, partial curve, poor fit] | Potency [7] 29.6 µM [inhibitor, single point] | Potency [9] 14.8 µM [inhibitor, partial curve] | Potency [10] 20.9 µM [inhibitor, single point]

OC[C@H]1O[C@@H](Oc2cc(O)cc(C=Cc3ccc(O)cc3)c2)[C@H](O)[C@@H](O)[C@H]1O
inactive: Potency [1] | Potency [11] | Potency [3] | Potency [8] | Potency [5] | outcome [7]
inconclusive: Potency [2] 18.7 µM [cytotoxic, partial curve]

S=c1nc[nH]c2nc[nH]c12
inconclusive: Potency [3] 0.935 µM [cytotoxic, full curve] | Potency [8] 2.96 µM [cytotoxic, full curve] | Potency [4] 16.6 µM [cytotoxic, partial curve] | Potency [7] 11.9 µM [inhibitor, partial curve] | Potency [9] 4.61 µM [inhibitor, full curve, poor fit]
active: Potency [2] 5.9 µM | Potency [5] 1.18 µM

COc1ccc(-c2oc3c(CC=C(C)C)c(OC4O[C@H](CO)[C@@H](O)[C@H](O)[C@@H]4O)cc(O)c3c(=O)c2OC2O[C@@H](C)[C@H](O)[C@@H](O)[C@@H]2O)cc1 (stereo partly specified)
inconclusive: Potency [1] 33.2 µM [cytotoxic, single point] | Potency [6] 23.5 µM [falling, partial curve, poor fit] | Potency [7] 33.2 µM [inhibitor, single point] | Potency [9] 26.4 µM [inhibitor, single point]
active: Potency [3] 20.9 µM | Potency [5] 16.6 µM

COc1cc([C@@H]2c3cc4c(cc3[C@H](O)[C@H]3COC(=O)[C@H]23)OCO4)cc(OC)c1OC
inconclusive: Potency [3] 0.0023 µM [cytotoxic, full curve] | Potency [5] 0.0033 µM [cytotoxic, full curve] | Potency [6] 0.00187 µM [falling, full curve] | Potency [10] 47.3 nM [inhibitor, full curve] and 3.3 nM [inhibitor, full curve, poor fit]
inactive: Potency [1]
active: Potency [7] 0.0299 µM

Nc1ncnc2c1ncn2[C@@H]1O[C@H](CO)C[C@@H]1O
inactive: Potency [2] | max response [7] -11.4%
inconclusive: Potency [1] 0.0019 µM [rising, full curve, poor fit] | Potency [5] 33.2 µM [cytotoxic, partial curve, poor fit]

CN[C@H](CC(C)C)C(=O)N[C@H]1C(=O)N[C@@H](CC(N)=O)C(=O)N[C@@H]2C(=O)N[C@H]3C(=O)N[C@H](C(=O)N[C@H](C(=O)O)c4cc(O)cc(O)c4-c4cc3ccc4O)[C@H](O)c3ccc(c(Cl)c3)Oc3cc2cc(c3O[C@@H]2O[C@H](CO)[C@@H](O)[C@H](O)[C@@H]2O[C@H]2C[C@](C)(N)[C@H](O)[C@H](C)O2)Oc2ccc(cc2Cl)[C@H]1O
inconclusive: Potency [1] 9.35 µM [rising, full curve, poor fit] | Potency [2] 18.7 µM [cytotoxic, partial curve, poor fit] | Potency [3] 5.26 µM [rising, partial curve, poor fit] | Potency [7] 11.8 µM [inhibitor, single point]
inactive: Potency [4] | Potency [5]

Cc1nc(C(=O)NCC(=O)O)c(O)c2ccc(Oc3ccccc3)cc12
inactive: Potency [1] | Potency [4] | Potency [5]
inconclusive: Potency [2] 11.8 µM [cytotoxic, partial curve, poor fit] | Potency [6] 13.2 µM [falling, partial curve, poor fit] | Potency [7] 37.2 µM [inhibitor, single point]

2 compounds drawn at random from the list so far, as already listed:
COc1cc([C@@H]2c3cc4c(cc3[C@H](O)[C@H]3COC(=O)[C@H]23)OCO4)cc(OC)c1OC
inconclusive: Potency [3] 0.0023 µM [cytotoxic, full curve] | Potency [5] 0.0033 µM [cytotoxic, full curve] | Potency [6] 0.00187 µM [falling, full curve] | Potency [10] 47.3 nM [inhibitor, full curve] and 3.3 nM [inhibitor, full curve, poor fit]
inactive: Potency [1]
active: Potency [7] 0.0299 µM

Nc1ncnc2c1ncn2[C@@H]1O[C@H](CO)C[C@@H]1O
inactive: Potency [2] | max response [7] -11.4%
inconclusive: Potency [1] 0.0019 µM [rising, full curve, poor fit] | Potency [5] 33.2 µM [cytotoxic, partial curve, poor fit]
